Results: publication PMC3598916
These are yes or no findings as the source states them, for the method shown. In cells and extracts the contact can be indirect. Some binding calls cover weakened binding; strength is not graded here.

Chains of the proteins cited; added tags and fusions are not shown. Residues count along the entry.
UniProt P25911, residues 129-226: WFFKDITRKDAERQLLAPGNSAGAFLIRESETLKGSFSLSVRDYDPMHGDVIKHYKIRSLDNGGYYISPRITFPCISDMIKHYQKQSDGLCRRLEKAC

Molecular target: GST-fusion protein containing the SH2-domain of Lyn (UniProt P25911)
Assay: pull-down; GST-SH2(Lyn) as bait on lysates (0.5% NP-40, 0.5% sodium deoxycholate) of IgE-loaded wild-type BMMCs pretreated with 100 μM Ro5-4864 or DMSO and stimulated with Ag (DNP-HSA, 20 ng/ml) for 5 min or left unstimulated; immunoblot against phosphotyrosine, Syk and FcεRIβ-chain; only the target purified

B1: β-chain of the FcεRI, tyrosine-phosphorylated (receptor, UniProt P20490 1-235)
chain: MDTENRSRADLALPNPQESSSAPDIELLEASPAKAAPPKQTWRTFLKKELEFLGATQILVGLICLCFGTIVCSVLYVSDFDEEVLLLYKLGYPFWGAVLFVLSGFLSIISERKNTLYLVRGSLGANIVSSIAAGTGIAMLILNLTNNFAYMNNCKNVTEDDGCFVASFTTELVLMMLFLTILAFCSAVLFTIYRIGQELESKKVPDDRLYEELNVYSPIYSELEDKGETSSPVDS
modifications: tyrosine-phosphorylated (sites not given)
B1 was tested, and the binding was “binds”.
